Laboratory results from patent publication US20250283871A1, “COMPOSITIONS AND METHODS FOR MODULATING THE INTERACTION BETWEEN SS18-SSX FUSION ONCOPROTEIN AND NUCLEOSOMES” (Dana-Farber Cancer Institute, Inc., priority 2020, published 2025).

B1: HSDL2 (protein, UniProt Q6YN16 1-418, looked up)
Hydroxysteroid …: MLPNTGRLAGCTVFITGASRGIGKAIALKAAKDGANIVIAAKTAQPHPKLLGTIYTAAEEIEAVGGKALPCIVDVRDEQQISAAVEKAIKKFGGIDILVNNASAISLTNTLDTPTKRLDLMMNVNTRGTYLASKACIPYLKKSKVAHILNISPPLNLNPVWFKQHCAYTIAKYGMSMYVLGMAEEFKGEIAVNALWPKTAIHTAAMDMLGGPGIESQCRKVDIIADAAYSIFQKPKSFTGNFVIDENILKEEGIENFDVYAIKPGHPLQPDFFLDEYPEAVSKKVESTGAVPEFKEEKLQLQPKPRSGAVEETFRIVKDSLSDDVVKATQAIYLFELSGEDGGTWFLDLKSKGGNVGYGEPSDQADVVMSMTTDDFVKMFSGKLKPTMAFMSGKLKIKGNMALAIKLEKLMNQMNARL
B2: FIGNL1 (protein, UniProt Q6PIW4 1-674, looked up)
Fidgetin-like protein 1: MQTSSSRSVHLSEWQKNYFAITSGICTGPKADAYRAQILRIQYAWANSEISQVCATKLFKKYAEKYSAIIDSDNVESGLNNYAENILTLAGSQQTDSDKWQSGLSINNVFKMSSVQKMMQAGKKFKDSLLEPALASVVIHKEATVFDLPKFSVCGSSQESDSLPNSAHDRDRTQDFPESNRLKLLQNAQPPMVTNTARTCPTFSAPVGESATAKFHVTPLFGNVKKENHSSAKENIGLNVFLSNQSCFPAACENPQRKSFYGSGTIDALSNPILNKACSKTEDNGPKEDSSLPTFKTAKEQLWVDQQKKYHQPQRASGSSYGGVKKSLGASRSRGILGKFVPPIPKQDGGEQNGGMQCKPYGAGPTEPAHPVDERLKNLEPKMIELIMNEIMDHGPPVNWEDIAGVEFAKATIKEIVVWPMLRPDIFTGLRGPPKGILLFGPPGTGKTLIGKCIASQSGATFFSISASSLTSKWVGEGEKMVRALFAVARCQQPAVIFIDEIDSLLSQRGDGEHESSRRIKTEFLVQLDGATTSSEDRILVVGATNRPQEIDEAARRRLVKRLYIPLPEASARKQIVINLMSKEQCCLSEEEIEQIVQQSDAFSGADMTQLCREASLGPIRSLQTADIATITPDQVRPIAYIDFENAFRTVRPSVSPKDLELYENWNKTFGCGK
B3: FLVCR1 (protein, UniProt Q9Y5Y0 1-555, looked up)
Choline/ethanolamine …: MARPDDEEGAAVAPGHPLAKGYLPLPRGAPVGKESVELQNGPKAGTFPVNGAPRDSLAAASGVLGGPQTPLAPEEETQARLLPAGAGAETPGAESSPLPLTALSPRRFVVLLIFSLYSLVNAFQWIQYSIISNVFEGFYGVTLLHIDWLSMVYMLAYVPLIFPATWLLDTRGLRLTALLGSGLNCLGAWIKCGSVQQHLFWVTMLGQCLCSVAQVFILGLPSRIASVWFGPKEVSTACATAVLGNQLGTAVGFLLPPVLVPNTQNDTNLLACNISTMFYGTSAVATLLFILTAIAFKEKPRYPPSQAQAALQDSPPEEYSYKKSIRNLFKNIPFVLLLITYGIMTGAFYSVSTLLNQMILTYYEGEEVNAGRIGLTLVVAGMVGSILCGLWLDYTKTYKQTTLIVYILSFIGMVIFTFTLDLRYIIIVFVTGGVLGFFMTGYLPLGFEFAVEITYPESEGTSSGLLNASAQIFGILFTLAQGKLTSDYGPKAGNIFLCVWMFIGIILTALIKSDLRRHNINIGITNVDVKAIPADSPTDQEPKTVMLSKQSESAI
B4: DDX3X (protein, UniProt O00571 2-662, looked up)
ATP-dependent RNA helicase …: SHVAVENALGLDQQFAGLDLNSSDNQSGGSTASKGRYIPPHLRNREATKGFYDKDSSGWSSSKDKDAYSSFGSRSDSRGKSSFFSDRGSGSRGRFDDRGRSDYDGIGSRGDRSGFGKFERGGNSRWCDKSDEDDWSKPLPPSERLEQELFSGGNTGINFEKYDDIPVEATGNNCPPHIESFSDVEMGEIIMGNIELTRYTRPTPVQKHAIPIIKEKRDLMACAQTGSGKTAAFLLPILSQIYSDGPGEALRAMKENGRYGRRKQYPISLVLAPTRELAVQIYEEARKFSYRSRVRPCVVYGGADIGQQIRDLERGCHLLVATPGRLVDMMERGKIGLDFCKYLVLDEADRMLDMGFEPQIRRIVEQDTMPPKGVRHTMMFSATFPKEIQMLARDFLDEYIFLAVGRVGSTSENITQKVVWVEESDKRSFLLDLLNATGKDSLTLVFVETKKGADSLEDFLYHEGYACTSIHGDRSQRDREEALHQFRSGKSPILVATAVAARGLDISNVKHVINFDLPSDIEEYVHRIGRTGRVGNLGLATSFFNERNINITKDLLDLLVEAKQEVPSWLENMAYEHHYKGSSRGRSKSSRFSGGFGARDYRQSSGASSSSFSSSRASSSRSGGGGHGSSRGFGGGGYGGFYNSDGYGGNYNSQGVDWWGN
B5: ZNF362 (protein, UniProt Q5T0B9 1-420, looked up)
Zinc finger protein 362: MSRSSPSGKGHSRMAEPRFNNPYFWPPPPTMPSQLDNLVLINKIKEQLMAEKIRPPHLPPTSASSQQPLLVPPAPAESSQAVMSLPKLQQVPGLHPQAVPQPDVALHARPATSTVTGLGLSTRTPSVSTSESSAGAGTGTGTSTPSTPTTTSQSRLIASSPTLISGITSPPLLDSIKTIQGHGLLGPPKSERGRKKIKAENPGGPPVLVVPYPILASGETAKEGKTYRCKVCPLTFFTKSEMQIHSKSHTEAKPHKCPHCSKSFANASYLAQHLRIHLGVKPYHCSYCDKSFRQLSHLQQHTRIHTGDRPYKCPHPGCEKAFTQLSNLQSHQRQHNKDKPYKCPNCYRAYSDSASLQIHLSAHAIKHAKAYCCSMCGRAYTSETYLMKHMSKHTVVEHLVSHHSPQRTESPGIPVRISLI
B6: WAPL (protein, UniProt Q7Z5K2 1-1190, looked up)
Wings apart-like protein …: MTSRFGKTYSRKGGNGSSKFDEVFSNKRTTLSTKWGETTFMAKLGQKRPNFKPDIQEIPKKPKVEEESTGDPFGFDSDDESLPVSSKNLAQVKCSSYSESSEAAQLEEVTSVLEANSKISHVVVEDTVVSDKCFPLEDTLLGKEKSTNRIVEDDASISSCNKLITSDKVENFHEEHEKNSHHIHKNADDSTKKPNAETTVASEIKETNDTWNSQFGKRPESPSEISPIKGSVRTGLFEWDNDFEDIRSEDCILSLDSDPLLEMKDDDFKNRLENLNEAIEEDIVQSVLRPTNCRTYCRANKTKSSQGASNFDKLMDGTSQALAKANSESSKDGLNQAKKGGVSCGTSFRGTVGRTRDYTVLHPSCLSVCNVTIQDTMERSMDEFTASTPADLGEAGRLRKKADIATSKTTTRFRPSNTKSKKDVKLEFFGFEDHETGGDEGGSGSSNYKIKYFGFDDLSESEDDEDDDCQVERKTSKKRTKTAPSPSLQPPPESNDNSQDSQSGTNNAENLDFTEDLPGVPESVKKPINKQGDKSKENTRKIFSGPKRSPTKAVYNARHWNHPDSEELPGPPVVKPQSVTVRLSSKEPNQKDDGVFKAPAPPSKVIKTVTIPTQPYQDIVTALKCRREDKELYTVVQHVKHFNDVVEFGENQEFTDDIEYLLSGLKSTQPLNTRCLSVISLATKCAMPSFRMHLRAHGMVAMVFKTLDDSQHHQNLSLCTAALMYILSRDRLNMDLDRASLDLMIRLLELEQDASSAKLLNEKDMNKIKEKIRRLCETVHNKHLDLENITTGHLAMETLLSLTSKRAGDWFKEELRLLGGLDHIVDKVKECVDHLSRDEDEEKLVASLWGAERCLRVLESVTVHNPENQSYLIAYKDSQLIVSSAKALQHCEELIQQYNRAEDSICLADSKPLPHQNVTNHVGKAVEDCMRAIIGVLLNLTNDNEWGSTKTGEQDGLIGTALNCVLQVPKYLPQEQRFDIRVLGLGLLINLVEYSARNRHCLVNMETSCSFDSSICSGEGDDSLRIGGQVHAVQALVQLFLERERAAQLAESKTDELIKDAPTTQHDKSGEWQETSGEIQWVSTEKTDGTEEKHKKEEEDEELDLNKALQHAGKHMEDCIVASYTALLLGCLCQESPINVTTVREYLPEGDFSIMTEMLKKFLSFMNLTCAVGTTGQKSISRVIEYLEHC

What follows are molecules tested on BAF complex subunits and histone proteins (assay: Mass spectrometry proteomics of purified HA-SS18 WT and HA-SS18-SSX1 complexes (Tables 5A-5E)). Settings: HA-SS18SSX1_NE_peptides: protein co-purified with HA-SS18-SSX1 BAF complexes from soluble nuclear extract (NE), HEK-293T cells.
Design: species or system human

Total (peptides), 1:
B1
B2
B3
B4
B5
B6

Unique (peptides), 1:
B1
B2
B3
B4
B5
B6

Same assay, conditions: HA-SS18WT_CHR_peptides: protein identified in HA-SS18 WT BAF complex purification from nuclease-treated solubilized chromatin (CHR), HEK-293T

Total (total peptides), 1:
B4

Unique (unique peptides), 1:
B4

Same assay, conditions: HA-SS18WT_NE_peptides: proteins co-purified with HA-SS18 WT from nuclear extract (NE), HEK-293T

Total (peptides), 1:
B1
B5

Unique (peptides), 1:
B1
B5
